{"sequences": {"note": "By UniProt entry, the sequences of proteins in these tests, tags left out. Residues count along the entry.", "UniProt P05187, residues 23-506": "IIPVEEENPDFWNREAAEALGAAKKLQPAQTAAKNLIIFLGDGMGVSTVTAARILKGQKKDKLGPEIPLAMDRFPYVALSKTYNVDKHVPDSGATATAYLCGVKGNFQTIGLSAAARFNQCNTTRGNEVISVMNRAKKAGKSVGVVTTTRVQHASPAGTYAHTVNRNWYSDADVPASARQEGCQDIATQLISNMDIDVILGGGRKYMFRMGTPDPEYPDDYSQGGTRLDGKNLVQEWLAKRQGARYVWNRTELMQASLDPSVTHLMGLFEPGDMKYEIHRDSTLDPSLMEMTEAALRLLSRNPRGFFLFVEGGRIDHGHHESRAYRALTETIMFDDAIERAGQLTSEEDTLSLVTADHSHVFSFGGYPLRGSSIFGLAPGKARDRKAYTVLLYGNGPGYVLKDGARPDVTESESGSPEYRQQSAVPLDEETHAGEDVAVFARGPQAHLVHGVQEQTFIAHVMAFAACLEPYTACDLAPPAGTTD", "UniProt P10696, residues 20-503": "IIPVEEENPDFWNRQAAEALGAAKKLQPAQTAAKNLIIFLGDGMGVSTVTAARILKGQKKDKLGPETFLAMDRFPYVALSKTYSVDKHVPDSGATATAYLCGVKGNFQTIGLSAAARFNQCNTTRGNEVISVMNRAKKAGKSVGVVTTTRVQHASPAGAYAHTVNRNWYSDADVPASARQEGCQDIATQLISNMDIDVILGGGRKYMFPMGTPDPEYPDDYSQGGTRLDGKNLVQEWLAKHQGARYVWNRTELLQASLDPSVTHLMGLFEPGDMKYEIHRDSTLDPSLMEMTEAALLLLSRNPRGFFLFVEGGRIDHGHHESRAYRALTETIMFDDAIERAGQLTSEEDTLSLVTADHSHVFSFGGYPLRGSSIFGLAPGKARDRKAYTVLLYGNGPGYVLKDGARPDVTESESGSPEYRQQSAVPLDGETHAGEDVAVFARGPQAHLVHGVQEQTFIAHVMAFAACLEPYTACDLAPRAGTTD"}, "source": "patent US20230080224A1", "about": "(AGENCY FOR SCIENCE TECHNOLOGY AND RESEARCH, published 2023)", "key": {"[1]": {"molecular_target": "human ALPP (recombinant protein) (human) (UniProt P05187)", "test": "SPR, Biacore T200, ligand captured by streptavidin on CM5 chip, antibody as analyte"}, "[2]": {"molecular_target": "human ALPPL2 (recombinant protein) (human) (UniProt P10696)", "test": "SPR, Biacore T200, ligand captured by streptavidin on CM5 chip, antibody as analyte"}, "[3]": {"molecular_target": "human ALPPL2 (recombinant protein) (human) (UniProt P10696)", "test": "screen of rabbit B-cell clones by ELISA and FACS"}}, "note": "These are yes or no findings as the source states them, for the method shown. Some results given as binding are weak or reduced against the parent protein; the word gives no strength."}
{"binder": "humanized C131 (antibody, human IgG1, V domains shown) VH: EVQLVESGGGLVQPGGSLRLSCAASGFSFSSSYYMCWVRQAPGKGLEWIACIYAGSTFSTYYASWAKGRFTISRDNSKNTLYLQMNSLRAEDTAVYYCARSDSYYTYGYAGYAYAIFNLWGQGTLVTVSS VL: DIQMTQSPSSLSASVGDRVTITCQASESIYSNLAWYQQKPGKVPKLLIYLASTLASGVPSRFSGSGSGTDFTLTISSLQPEDVATYYCQSAYYSSSADIAFGQGTKVEIK", "values": [{"measurement": "binding", "setting": "[1]", "result": "binds"}, {"measurement": "binding", "setting": "[2]", "result": "binds"}]}
{"binder": "AB1C13 (antibody, V domains shown, Rabbit antibody cloned from a single B cell) VH: QEQLEESGGDLVKPEGSLTLTCTASGFSFSWICWVRQAPGKGLEWIACIYAGSSAKTYYASWAKGRFTISKASSTTVTLQMTSLTAADTATYFCARASNYYRYGVAGYADYTGYFNLWGPGTLVTVSS VL: FELTQTPASVEAAVGGTVTIKCQASQSISSWLAWYHQKPGQRPKLLIYGTSTLASGVPSRFKGSGSGTEFTLTISDLECADAATYYCQNYGGSSSGDAFGGGTEVVVK", "values": [{"measurement": "binding", "setting": "[3]", "result": "binds"}]}
